Series [1] concerns the target T1, ELF3 (human) (UniProt P78545).
T1 sequence (looked up): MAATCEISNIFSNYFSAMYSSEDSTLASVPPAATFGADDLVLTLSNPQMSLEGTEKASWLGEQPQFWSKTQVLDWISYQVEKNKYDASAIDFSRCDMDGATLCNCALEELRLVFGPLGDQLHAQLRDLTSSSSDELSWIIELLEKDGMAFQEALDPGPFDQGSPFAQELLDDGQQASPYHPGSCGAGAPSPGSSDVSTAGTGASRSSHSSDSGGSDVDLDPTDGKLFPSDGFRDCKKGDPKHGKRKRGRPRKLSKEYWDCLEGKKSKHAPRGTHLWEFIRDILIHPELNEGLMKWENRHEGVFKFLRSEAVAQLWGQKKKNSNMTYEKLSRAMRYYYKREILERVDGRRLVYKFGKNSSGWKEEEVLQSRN
Description: EMSA. The conditions noted are these: EMSA conditions not printed (as previously described, ref 5); protein stock in 10 mM Tris pH 7.9, 0.5 mM EDTA, 200 mM KCl, 1 mM DTT, 10% glycerol; recombinant protein; residues 1-371; protein details: N-term 6xHis. On the technique in general: Mobility shift assays separate free from complexed probe on a gel.

The target in series [2] is T2, ETV1 (human) (UniProt P50549).
T2 sequence (looked up): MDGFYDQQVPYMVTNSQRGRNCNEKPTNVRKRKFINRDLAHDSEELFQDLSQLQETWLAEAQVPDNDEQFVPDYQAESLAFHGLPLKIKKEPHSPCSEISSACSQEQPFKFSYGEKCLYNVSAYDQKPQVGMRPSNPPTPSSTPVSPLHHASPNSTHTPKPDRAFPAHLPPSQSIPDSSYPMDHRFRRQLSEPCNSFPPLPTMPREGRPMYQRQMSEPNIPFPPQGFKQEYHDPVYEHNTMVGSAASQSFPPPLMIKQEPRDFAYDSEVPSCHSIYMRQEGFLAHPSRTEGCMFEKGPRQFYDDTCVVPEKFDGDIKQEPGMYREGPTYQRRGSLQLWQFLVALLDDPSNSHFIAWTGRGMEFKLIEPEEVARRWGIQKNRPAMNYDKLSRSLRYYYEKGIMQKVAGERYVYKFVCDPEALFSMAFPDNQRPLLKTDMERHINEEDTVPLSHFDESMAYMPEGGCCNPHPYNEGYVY
As to the kind of experiment: EMSA. To be noted: EMSA conditions not printed (as previously described, ref 5); protein stock in 10 mM Tris pH 7.9, 0.5 mM EDTA, 200 mM KCl, 1 mM DTT, 10% glycerol; recombinant protein; residues 1-477; protein details: N-term 6xHis.

The source of these data is PMC4338625.

Construct, isoform or probe ends are uncertain for at least one entry. At least one verdict was read from the data and is not stated in words by the source. Where a protein sequence is shown, tags need not be part of it.

In the case of “GCCACGGCCCAGGAAGTGACTCACCCACCCTGATG (double strand) [ETS consensus EMSA probe]”, the binding result in series [1] and in series [2] was “binds” in each case.
